Test results as given in the supplement of paper PMC10849652.
This is one part of the list.

Protein sequences, listed by entry. Tags and fused reporters are not part of them. Lines headed by an entry give the natural chain unless they say otherwise; changes in a name come on top.
UniProt Q9UMS0: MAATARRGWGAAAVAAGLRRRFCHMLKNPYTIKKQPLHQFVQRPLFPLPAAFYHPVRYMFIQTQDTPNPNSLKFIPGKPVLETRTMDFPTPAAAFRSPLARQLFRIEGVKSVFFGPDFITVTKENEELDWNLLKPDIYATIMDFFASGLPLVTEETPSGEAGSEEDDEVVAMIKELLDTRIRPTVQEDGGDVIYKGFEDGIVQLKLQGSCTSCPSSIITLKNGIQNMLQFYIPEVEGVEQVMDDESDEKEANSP
UniProt Q9Y3C1: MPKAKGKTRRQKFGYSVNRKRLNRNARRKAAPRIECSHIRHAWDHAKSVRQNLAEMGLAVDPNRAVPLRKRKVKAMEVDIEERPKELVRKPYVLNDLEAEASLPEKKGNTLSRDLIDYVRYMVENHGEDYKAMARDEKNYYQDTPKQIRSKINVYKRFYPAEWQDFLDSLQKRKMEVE
UniProt Q15233: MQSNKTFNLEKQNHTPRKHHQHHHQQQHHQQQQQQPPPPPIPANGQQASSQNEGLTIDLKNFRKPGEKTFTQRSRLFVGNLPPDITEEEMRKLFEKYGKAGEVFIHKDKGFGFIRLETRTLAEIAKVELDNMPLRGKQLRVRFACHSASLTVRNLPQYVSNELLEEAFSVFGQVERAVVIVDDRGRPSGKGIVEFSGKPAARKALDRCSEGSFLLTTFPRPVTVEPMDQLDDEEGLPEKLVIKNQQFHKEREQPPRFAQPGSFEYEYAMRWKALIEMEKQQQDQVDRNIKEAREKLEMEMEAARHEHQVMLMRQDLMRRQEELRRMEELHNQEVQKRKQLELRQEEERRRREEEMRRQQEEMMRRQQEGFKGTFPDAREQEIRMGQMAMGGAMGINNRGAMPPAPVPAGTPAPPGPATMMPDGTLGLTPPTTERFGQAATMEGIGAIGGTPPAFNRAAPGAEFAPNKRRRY
UniProt Q9UFN0: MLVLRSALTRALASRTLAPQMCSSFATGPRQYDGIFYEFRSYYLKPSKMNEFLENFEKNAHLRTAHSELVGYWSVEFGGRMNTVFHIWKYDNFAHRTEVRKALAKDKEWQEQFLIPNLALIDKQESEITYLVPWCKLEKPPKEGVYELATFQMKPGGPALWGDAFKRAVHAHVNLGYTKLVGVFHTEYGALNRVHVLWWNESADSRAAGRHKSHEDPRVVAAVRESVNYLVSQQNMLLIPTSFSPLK
UniProt Q9NQR4: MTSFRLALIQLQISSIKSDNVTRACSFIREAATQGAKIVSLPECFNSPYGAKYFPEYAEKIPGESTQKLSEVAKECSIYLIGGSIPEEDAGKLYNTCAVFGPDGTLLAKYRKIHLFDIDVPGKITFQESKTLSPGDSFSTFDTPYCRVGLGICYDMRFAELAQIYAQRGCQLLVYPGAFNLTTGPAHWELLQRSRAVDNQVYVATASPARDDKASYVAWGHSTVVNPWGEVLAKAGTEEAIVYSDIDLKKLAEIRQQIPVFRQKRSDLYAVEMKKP
UniProt P18615, whole entry, looked up: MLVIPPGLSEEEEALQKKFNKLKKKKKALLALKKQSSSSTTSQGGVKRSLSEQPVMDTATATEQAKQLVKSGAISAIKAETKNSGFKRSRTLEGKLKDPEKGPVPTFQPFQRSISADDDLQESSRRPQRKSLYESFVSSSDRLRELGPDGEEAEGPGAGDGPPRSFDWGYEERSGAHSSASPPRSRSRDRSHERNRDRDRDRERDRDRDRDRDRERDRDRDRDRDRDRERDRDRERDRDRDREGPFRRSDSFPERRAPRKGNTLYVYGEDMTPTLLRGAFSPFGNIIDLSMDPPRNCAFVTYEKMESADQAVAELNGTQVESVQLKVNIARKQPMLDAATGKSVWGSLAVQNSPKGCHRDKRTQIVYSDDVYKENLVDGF
UniProt Q9NX24: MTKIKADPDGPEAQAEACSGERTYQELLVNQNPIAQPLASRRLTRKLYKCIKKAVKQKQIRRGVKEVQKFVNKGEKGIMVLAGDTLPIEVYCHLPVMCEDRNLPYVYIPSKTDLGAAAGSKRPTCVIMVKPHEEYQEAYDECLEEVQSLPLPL
UniProt P24468: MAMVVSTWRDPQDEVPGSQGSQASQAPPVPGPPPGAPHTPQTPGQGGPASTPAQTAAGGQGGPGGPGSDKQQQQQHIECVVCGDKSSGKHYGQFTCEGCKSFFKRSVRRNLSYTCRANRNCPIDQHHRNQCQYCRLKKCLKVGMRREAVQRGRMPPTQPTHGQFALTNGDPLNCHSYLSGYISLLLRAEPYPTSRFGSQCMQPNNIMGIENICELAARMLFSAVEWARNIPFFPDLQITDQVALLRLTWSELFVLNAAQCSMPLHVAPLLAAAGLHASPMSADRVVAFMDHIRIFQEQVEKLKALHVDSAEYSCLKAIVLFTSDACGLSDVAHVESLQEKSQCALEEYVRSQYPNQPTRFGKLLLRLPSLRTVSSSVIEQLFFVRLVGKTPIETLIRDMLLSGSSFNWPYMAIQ
UniProt Q6ZNB6: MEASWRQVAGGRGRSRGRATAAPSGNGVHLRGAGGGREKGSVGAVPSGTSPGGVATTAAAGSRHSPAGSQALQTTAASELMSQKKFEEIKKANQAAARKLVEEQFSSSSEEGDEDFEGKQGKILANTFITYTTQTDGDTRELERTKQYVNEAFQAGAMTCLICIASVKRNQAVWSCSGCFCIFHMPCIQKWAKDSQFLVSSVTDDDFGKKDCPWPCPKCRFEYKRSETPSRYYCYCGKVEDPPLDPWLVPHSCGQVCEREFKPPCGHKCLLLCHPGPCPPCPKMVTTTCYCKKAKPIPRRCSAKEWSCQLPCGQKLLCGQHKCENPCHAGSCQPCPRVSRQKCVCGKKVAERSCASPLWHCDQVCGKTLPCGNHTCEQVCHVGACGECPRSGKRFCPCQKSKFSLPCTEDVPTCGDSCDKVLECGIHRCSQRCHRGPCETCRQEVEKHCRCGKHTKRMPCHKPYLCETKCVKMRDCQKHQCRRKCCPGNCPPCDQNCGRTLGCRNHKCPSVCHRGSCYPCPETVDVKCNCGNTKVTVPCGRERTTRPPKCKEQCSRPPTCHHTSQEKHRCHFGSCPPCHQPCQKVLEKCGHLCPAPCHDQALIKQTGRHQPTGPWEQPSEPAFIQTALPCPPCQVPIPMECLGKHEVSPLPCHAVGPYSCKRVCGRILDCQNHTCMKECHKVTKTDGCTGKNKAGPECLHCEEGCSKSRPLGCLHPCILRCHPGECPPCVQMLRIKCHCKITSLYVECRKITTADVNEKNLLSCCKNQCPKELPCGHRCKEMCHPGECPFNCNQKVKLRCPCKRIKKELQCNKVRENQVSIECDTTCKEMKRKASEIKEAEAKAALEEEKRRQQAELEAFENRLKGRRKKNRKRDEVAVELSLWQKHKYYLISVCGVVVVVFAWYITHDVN
UniProt P10588: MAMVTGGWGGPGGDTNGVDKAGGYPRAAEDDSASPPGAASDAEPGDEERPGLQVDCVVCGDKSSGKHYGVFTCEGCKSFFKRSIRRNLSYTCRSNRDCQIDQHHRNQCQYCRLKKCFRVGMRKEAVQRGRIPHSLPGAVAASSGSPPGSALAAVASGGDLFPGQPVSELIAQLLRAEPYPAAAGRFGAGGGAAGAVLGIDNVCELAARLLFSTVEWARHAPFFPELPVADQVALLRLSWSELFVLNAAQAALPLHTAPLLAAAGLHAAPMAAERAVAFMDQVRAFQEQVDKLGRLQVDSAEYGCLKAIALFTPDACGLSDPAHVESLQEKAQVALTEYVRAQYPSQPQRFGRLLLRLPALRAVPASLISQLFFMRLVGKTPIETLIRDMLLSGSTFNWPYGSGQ
UniProt Q9BXD5: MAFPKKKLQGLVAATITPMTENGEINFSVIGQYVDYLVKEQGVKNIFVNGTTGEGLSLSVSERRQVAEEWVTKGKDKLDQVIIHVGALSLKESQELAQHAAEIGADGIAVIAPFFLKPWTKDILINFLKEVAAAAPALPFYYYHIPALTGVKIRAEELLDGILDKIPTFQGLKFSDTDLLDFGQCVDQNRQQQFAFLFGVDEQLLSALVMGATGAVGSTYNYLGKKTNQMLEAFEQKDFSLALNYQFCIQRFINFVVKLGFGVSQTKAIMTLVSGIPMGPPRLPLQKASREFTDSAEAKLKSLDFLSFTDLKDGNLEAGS
UniProt Q9Y639: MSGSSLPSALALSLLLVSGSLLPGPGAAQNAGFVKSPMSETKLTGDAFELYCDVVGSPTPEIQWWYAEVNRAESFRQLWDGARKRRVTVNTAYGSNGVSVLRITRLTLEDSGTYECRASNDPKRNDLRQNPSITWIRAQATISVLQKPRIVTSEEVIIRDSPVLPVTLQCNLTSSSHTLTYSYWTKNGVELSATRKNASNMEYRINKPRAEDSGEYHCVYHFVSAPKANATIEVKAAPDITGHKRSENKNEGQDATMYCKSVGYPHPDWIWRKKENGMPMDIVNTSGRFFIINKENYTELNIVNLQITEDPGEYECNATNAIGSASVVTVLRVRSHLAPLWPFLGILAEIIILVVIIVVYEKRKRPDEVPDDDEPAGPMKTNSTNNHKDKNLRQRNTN
UniProt Q9NX02: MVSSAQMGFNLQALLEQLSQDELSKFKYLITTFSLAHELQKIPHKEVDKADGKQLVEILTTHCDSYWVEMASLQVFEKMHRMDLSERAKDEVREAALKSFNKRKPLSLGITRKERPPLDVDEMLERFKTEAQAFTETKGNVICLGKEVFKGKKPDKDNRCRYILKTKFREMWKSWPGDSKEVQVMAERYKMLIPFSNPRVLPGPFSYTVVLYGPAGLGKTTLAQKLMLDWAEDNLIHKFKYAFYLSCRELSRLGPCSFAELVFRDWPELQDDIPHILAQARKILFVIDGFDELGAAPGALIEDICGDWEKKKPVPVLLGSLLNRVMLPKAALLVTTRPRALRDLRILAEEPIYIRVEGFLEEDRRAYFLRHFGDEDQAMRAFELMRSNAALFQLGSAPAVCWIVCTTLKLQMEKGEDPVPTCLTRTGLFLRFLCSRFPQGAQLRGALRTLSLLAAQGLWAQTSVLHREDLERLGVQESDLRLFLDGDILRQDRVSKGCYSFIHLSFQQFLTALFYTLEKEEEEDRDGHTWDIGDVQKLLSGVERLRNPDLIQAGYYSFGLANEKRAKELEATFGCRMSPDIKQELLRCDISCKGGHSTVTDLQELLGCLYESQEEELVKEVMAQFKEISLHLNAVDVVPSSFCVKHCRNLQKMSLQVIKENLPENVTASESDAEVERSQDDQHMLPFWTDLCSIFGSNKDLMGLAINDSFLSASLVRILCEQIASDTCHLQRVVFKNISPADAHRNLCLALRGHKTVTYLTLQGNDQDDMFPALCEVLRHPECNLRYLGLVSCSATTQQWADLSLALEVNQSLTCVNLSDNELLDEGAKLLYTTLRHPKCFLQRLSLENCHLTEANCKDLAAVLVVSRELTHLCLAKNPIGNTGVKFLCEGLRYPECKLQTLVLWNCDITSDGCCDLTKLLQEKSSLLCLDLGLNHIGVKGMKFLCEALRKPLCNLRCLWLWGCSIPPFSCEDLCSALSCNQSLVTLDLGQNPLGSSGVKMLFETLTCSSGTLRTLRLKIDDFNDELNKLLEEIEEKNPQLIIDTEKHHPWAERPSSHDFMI
UniProt Q15653: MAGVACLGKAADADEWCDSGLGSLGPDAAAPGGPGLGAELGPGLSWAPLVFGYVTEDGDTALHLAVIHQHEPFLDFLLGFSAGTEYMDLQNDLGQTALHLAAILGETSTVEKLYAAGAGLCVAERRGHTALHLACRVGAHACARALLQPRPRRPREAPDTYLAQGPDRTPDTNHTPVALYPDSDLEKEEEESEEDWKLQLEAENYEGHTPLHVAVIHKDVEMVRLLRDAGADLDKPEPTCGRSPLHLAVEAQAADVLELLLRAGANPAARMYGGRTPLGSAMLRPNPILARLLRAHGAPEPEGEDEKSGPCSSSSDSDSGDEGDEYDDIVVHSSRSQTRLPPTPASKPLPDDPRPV
UniProt Q9H9Q4: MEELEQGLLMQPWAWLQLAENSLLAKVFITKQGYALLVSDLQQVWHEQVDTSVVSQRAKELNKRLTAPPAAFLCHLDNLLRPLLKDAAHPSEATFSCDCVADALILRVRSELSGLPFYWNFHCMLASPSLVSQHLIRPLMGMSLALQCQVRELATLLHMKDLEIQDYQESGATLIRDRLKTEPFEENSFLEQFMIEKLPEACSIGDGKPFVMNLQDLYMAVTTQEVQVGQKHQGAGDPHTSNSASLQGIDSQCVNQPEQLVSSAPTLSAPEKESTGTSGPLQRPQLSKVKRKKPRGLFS
UniProt P16083: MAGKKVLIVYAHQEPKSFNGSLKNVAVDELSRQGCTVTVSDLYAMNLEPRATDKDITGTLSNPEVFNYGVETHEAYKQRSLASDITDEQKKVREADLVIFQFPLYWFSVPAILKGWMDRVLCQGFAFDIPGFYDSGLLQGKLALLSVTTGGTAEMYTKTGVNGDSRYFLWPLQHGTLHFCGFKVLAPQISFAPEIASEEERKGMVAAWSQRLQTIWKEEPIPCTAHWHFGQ

Assays:
Assay in all cases: log2 fold change, soluble protein after heating vs DMSO (PISA); higher = thermal stabilisation; K562 cells, 10 uM, 30 min; active = over 0.2 and 3.5 SD of the protein, either way, in both replicates (recomputed)
[1] = compound: CC[C@@H]1C(=O)N(C)c2cnc(Nc3ccc(C(=O)NC4CCN(C)CC4)cc3OC)nc2N1C1CCCC1
In short: (§1)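 K562 cells at 2×10^6 cells/mL were treated with 10 μM compound for 30 min. Aliquots were heated for 3 min across 48°C-58°C, pooled, and extracted in PBS with 0.5% NP-40 at 4°C; soluble protein was the supernatant after 21,000xg for 90 min. Soluble protein was quantified by TMTpro 16plex LC-MS/MS with channel sums equalised, and reported as log2 fold change in thermal stability against DMSO controls, with values from duplicates.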

volasertib = compound: CC[C@@H]1C(=O)N(C)c2cnc(Nc3ccc(C(=O)N[C@H]4CC[C@H](N5CCN(CC6CC6)CC5)CC4)cc3OC)nc2N1C(C)C [volasertib]
In short: as §1

[2] = compound: CC[C@H](C)N1C=C(C2=C(C=C(C=C21)C3=CN=C(C=C3)N4CCNCC4)C(=O)NCC5=C(C=C(NC5=O)C)C)C
In short: as §1

epoxomicin = compound: CC[C@H](C)[C@@H](C(=O)N[C@@H]([C@@H](C)O)C(=O)N[C@@H](CC(C)C)C(=O)[C@]1(CO1)C)NC(=O)[C@H]([C@@H](C)CC)N(C)C(=O)C [epoxomicin]
In short: as §1

[3] = compound: CCn1c(C(=O)N(C2CC2)C2CC2)cc2c3c(ncn3C)c(Nc3cc(C)n(C)n3)nc21
In short: as §1

[4] = compound: CCn1cc(-c2ccnc3[nH]c(-c4cccc(CN(C)C)c4)cc23)c(-c2ccc(NC(=O)N(C)C)cc2)n1
In short: as §1

[5] = compound: CN(C)CC(=O)Nc1ccc2[nH]c(=O)c3ccccc3c2c1
In short: as §1

rosiglitazone = compound: CN(CCOC1=CC=C(C=C1)C[C@H]2C(=O)NC(=O)S2)C3=CC=CC=N3 (racemic) [rosiglitazone]
In short: as §1

[6] = compound: CN1C2=C(C3=C1C(=O)N(N=C3)CC4=CC(=CC=C4)N)SC(=C2)S(=O)C
In short: as §1

[7] = compound: CN1CCC(CNc2ccc3ncc(-c4cccc(OC(F)(F)F)c4)n3n2)CC1
In short: as §1

saracatinib = compound: CN1CCN(CCOc2cc(OC3CCOCC3)c3c(Nc4c(Cl)ccc5c4OCO5)ncnc3c2)CC1 [saracatinib]
In short: as §1

sotrastaurin = compound: CN1CCN(c2nc(C3=C(c4c[nH]c5ccccc45)C(=O)NC3=O)c3ccccc3n2)CC1 [sotrastaurin]
In short: as §1

alvocidib = compound: CN1CC[C@H](c2c(O)cc(O)c3c(=O)cc(-c4ccccc4Cl)oc23)[C@H](O)C1 [alvocidib]
In short: as §1

Tubastatin A = compound: CN1CCc2c(c3ccccc3n2Cc2ccc(C(=O)NO)cc2)C1 [Tubastatin A]
In short: as §1

[8] = compound: CNC(=O)C1=CC=CC=C1NC2=NC(=NC=C2Cl)NC3=C(C=C(C=C3)N4CCOCC4)OC
In short: as §1

defactinib = compound: CNC(=O)c1ccc(Nc2ncc(C(F)(F)F)c(NCc3nccnc3N(C)S(C)(=O)=O)n2)cc1 [defactinib]
In short: as §1

rucaparib = compound: CNCc1ccc(-c2[nH]c3cc(F)cc4c3c2CCNC4=O)cc1 [rucaparib]
In short: as §1

[9] = compound: CNc1nc(-c2ccc3c(N)n[nH]c3c2)cc(N2C[C@@H](C(=O)NC3CCCCC3)CC[C@H]2C)n1
In short: as §1

encorafenib = compound: COC(=O)N[C@@H](C)CNc1nccc(-c2cn(C(C)C)nc2-c2cc(Cl)cc(NS(C)(=O)=O)c2F)n1 [encorafenib]
In short: as §1

[10] = compound: COC(=O)[C@H](CCSC)NC(=O)C1=C(C=C(C=C1)NC[C@H](CS)N)C2=CC=CC=C2
In short: as §1

Measured: log2 fold change

NFU1 (UniProt Q9UMS0)
inactive: [1] -0.101 | volasertib 0.013 | [2] 0.011 | epoxomicin 0.039 | [3] 0 | [4] -0.048 | [5] 0.03 | rosiglitazone -0.003 | [6] -0.045 | [7] 0.038 | saracatinib -0.014 | sotrastaurin -0.058 | alvocidib 0.012 | Tubastatin A -0.013 | [8] 0.031 | defactinib 0.007 | rucaparib -0.048 | [9] -0.044 | encorafenib -0.076 | [10] 0.012

NOP16 (UniProt Q9Y3C1)
inactive: [1] 0.176 | volasertib 0.462 | [2] -0.033 | epoxomicin -0.238 | [3] -0.058 | [4] 0.296 | [5] -0.187 | rosiglitazone -0.139 | [6] 0.323 | [7] 0.176 | saracatinib -0.109 | sotrastaurin 0.198 | alvocidib 0.348 | Tubastatin A 0.092 | [8] -0.029 | defactinib 0.424 | rucaparib 0.145 | [9] 0.093 | encorafenib 0.152 | [10] -0.042

NONO (UniProt Q15233)
inactive: [1] -0.022 | volasertib -0.224 | [2] 0.166 | epoxomicin -0.075 | [3] -0.138 | [4] 0.015 | [5] 0.054 | rosiglitazone -0.018 | [6] 0.284 | [7] 0.06 | saracatinib -0.123 | sotrastaurin -0.17 | alvocidib -0.047 | Tubastatin A 0.178 | [8] -0.031 | defactinib -0.103 | rucaparib 0.169 | [9] -0.014 | encorafenib 0.099 | [10] -0.03

NIPSNAP3A (UniProt Q9UFN0)
inactive: [1] 0.034 | volasertib 0.01 | [2] -0.003 | epoxomicin 0.013 | [3] 0.013 | [4] 0.062 | [5] -0.041 | rosiglitazone -0.055 | [6] -0.032 | [7] 0.077 | saracatinib 0.011 | sotrastaurin 0.023 | alvocidib 0.013 | Tubastatin A -0.01 | [8] -0.001 | defactinib -0.036 | rucaparib 0.004 | [9] -0.087 | encorafenib 0.008 | [10] 0.045

NIT2 (UniProt Q9NQR4)
inactive: [1] 0.01 | volasertib 0.043 | [2] -0.015 | epoxomicin 0.007 | [3] -0.002 | [4] -0.037 | [5] 0.005 | rosiglitazone 0.014 | [6] -0.087 | [7] -0.036 | saracatinib 0.003 | sotrastaurin 0.069 | alvocidib -0.026 | Tubastatin A 0.005 | [8] 0 | defactinib -0.018 | rucaparib -0.032 | [9] -0.007 | encorafenib -0.039 | [10] -0.003

NELFE isoform 3 (UniProt P18615)
inactive: [1] -0.054 | volasertib -0.148 | [2] 0.013 | epoxomicin -0.003 | [3] -0.019 | [4] 0.092 | [5] 0.034 | rosiglitazone -0.01 | [6] 0.035 | [7] -0.044 | saracatinib 0.008 | sotrastaurin -0.045 | alvocidib 0.002 | Tubastatin A 0.092 | [8] -0.005 | defactinib -0.047 | rucaparib -0.01 | [9] -0.007 | encorafenib 0.031 | [10] 0.007

NHP2 (UniProt Q9NX24)
inactive: [1] 0.213 | volasertib 0.117 | [2] -0.021 | epoxomicin -0.131 | [3] 0.022 | [4] 0.079 | [5] -0.076 | rosiglitazone -0.066 | [6] 0.158 | [7] 0.137 | saracatinib 0.058 | sotrastaurin 0.01 | alvocidib 0.263 | Tubastatin A -0.024 | [8] 0.006 | defactinib 0.204 | rucaparib 0.16 | [9] 0.009 | encorafenib 0.017 | [10] 0.064

NR2F2 (UniProt P24468)
inactive: [1] 0.088 | volasertib -0.1 | [2] 0.014 | epoxomicin 0.136 | [3] 0.032 | [4] -0.012 | [5] 0.006 | rosiglitazone 0.052 | [6] 0.013 | [7] 0.071 | saracatinib 0.093 | sotrastaurin -0.065 | alvocidib -0.03 | Tubastatin A -0.012 | [8] -0.025 | defactinib -0.086 | rucaparib 0.093 | [9] -0.044 | encorafenib 0.041 | [10] 0.014

NFXL1 (UniProt Q6ZNB6)
inactive: [1] -0.011 | volasertib -0.131 | [2] 0.012 | epoxomicin 0 | [3] -0.021 | [4] -0.003 | [5] 0 | rosiglitazone -0.005 | [6] -0.052 | [7] -0.006 | saracatinib 0.023 | sotrastaurin 0.011 | alvocidib 0.014 | Tubastatin A -0.003 | [8] 0.022 | defactinib -0.04 | rucaparib 0.087 | [9] -0.031 | encorafenib 0.002 | [10] 0

NR2F6 (UniProt P10588)
inactive: [1] 0.123 | volasertib -0.011 | [2] 0.141 | epoxomicin 0.005 | [3] 0.073 | [4] -0.026 | [5] 0.04 | rosiglitazone 0.044 | [6] 0.02 | [7] 0.035 | saracatinib 0.009 | sotrastaurin 0.28 | alvocidib -0.03 | Tubastatin A -0.008 | [8] 0.094 | defactinib 0.012 | rucaparib -0.136 | [9] -0.068 | encorafenib 0.065 | [10] -0.05

NPL (UniProt Q9BXD5)
inactive: [1] 0.131 | volasertib -0.291 | [2] -0.023 | epoxomicin -0.197 | [3] -0.057 | [4] 0.057 | [5] -0.032 | rosiglitazone 0.024 | [6] -0.038 | [7] -0.098 | saracatinib 0.031 | sotrastaurin 0.058 | alvocidib -0.055 | Tubastatin A 0.116 | [8] -0.061 | defactinib 0.023 | rucaparib -0.051 | [9] -0.038 | encorafenib 0.063 | [10] 0.103

NPTN (UniProt Q9Y639)
inactive: [1] 0.038 | volasertib 0.084 | [2] -0.043 | epoxomicin -0.019 | [3] 0.005 | [4] -0.019 | [5] -0.034 | rosiglitazone 0.021 | [6] -0.084 | [7] 0.118 | saracatinib 0.03 | sotrastaurin 0.053 | alvocidib -0.043 | Tubastatin A 0.052 | [8] -0.011 | defactinib -0.058 | rucaparib -0.068 | [9] -0.019 | encorafenib -0.009 | [10] -0.001

NLRP2 (UniProt Q9NX02)
inactive: [1] -0.114 | volasertib -0.506 | [2] 0.066 | epoxomicin -0.063 | [3] -0.052 | [4] -0.044 | [5] -0.005 | rosiglitazone -0.004 | [6] 0.081 | [7] -0.02 | saracatinib -0.025 | sotrastaurin -0.117 | alvocidib -0.002 | Tubastatin A 0.002 | [8] -0.015 | defactinib -0.002 | rucaparib 0.215 | [9] 0.03 | encorafenib 0.088 | [10] -0.102

2 successive records from above:
NR2F6 (UniProt P10588)
inactive: [1] 0.123 | volasertib -0.011 | [2] 0.141 | epoxomicin 0.005 | [3] 0.073 | [4] -0.026 | [5] 0.04 | rosiglitazone 0.044 | [6] 0.02 | [7] 0.035 | saracatinib 0.009 | sotrastaurin 0.28 | alvocidib -0.03 | Tubastatin A -0.008 | [8] 0.094 | defactinib 0.012 | rucaparib -0.136 | [9] -0.068 | encorafenib 0.065 | [10] -0.05

NPL (UniProt Q9BXD5)
inactive: [1] 0.131 | volasertib -0.291 | [2] -0.023 | epoxomicin -0.197 | [3] -0.057 | [4] 0.057 | [5] -0.032 | rosiglitazone 0.024 | [6] -0.038 | [7] -0.098 | saracatinib 0.031 | sotrastaurin 0.058 | alvocidib -0.055 | Tubastatin A 0.116 | [8] -0.061 | defactinib 0.023 | rucaparib -0.051 | [9] -0.038 | encorafenib 0.063 | [10] 0.103

Following part

NFKBIB (UniProt Q15653)
inactive: [1] -0.108 | volasertib -0.11 | [2] 0 | epoxomicin 0.01 | [3] 0.034 | [4] -0.026 | [5] -0.014 | rosiglitazone 0.012 | [6] -0.082 | [7] 0.015 | saracatinib 0.019 | sotrastaurin -0.075 | alvocidib -0.006 | Tubastatin A 0.002 | [8] 0.225 | defactinib -0.044 | rucaparib -0.062 | [9] 0.014 | encorafenib 0.039 | [10] -0.048

NHEJ1 (UniProt Q9H9Q4)
inactive: [1] -0.129 | volasertib -0.145 | [2] -0.047 | epoxomicin 0.088 | [3] 0.01 | [4] -0.039 | [5] -0.075 | rosiglitazone 0.134 | [6] -0.101 | [7] 0.046 | saracatinib 0.048 | sotrastaurin 0.026 | alvocidib -0.077 | Tubastatin A -0.023 | [8] -0.036 | defactinib 0.028 | rucaparib 0.01 | [9] 0.021 | encorafenib 0.032 | [10] -0.021

NQO2 (UniProt P16083)
inactive: [1] -0.001 | volasertib 0.068 | [2] -0.045 | epoxomicin -0.039 | [3] 0.03 | [4] -0.038 | [5] -0.035 | rosiglitazone -0.033 | [6] -0.046 | [7] 0.02 | saracatinib 0.031 | sotrastaurin 0.009 | alvocidib -0.015 | Tubastatin A -0.02 | [8] -0.04 | defactinib -0.006 | rucaparib -0.005 | [9] -0.006 | encorafenib -0.014 | [10] 0.045
